These are yes or no findings as the source states them, for the method shown. For some assays here: In cells and extracts the contact can be indirect. Some results given as binding are weak or reduced against the parent protein; the word gives no strength. For some assays here: Where a sequence is shown, tags or fusion partners need not be part of it.
What was measured:
mISCU-HIS (mouse) [1] = target: T1, mISCU-HIS (mouse) (UniProt Q9D7P6); experiment: SEC; mISCU-HIS (wild type or D72A)/mNFS1/mISD11 co-expressed in bacteria, HIS-tag purification and gel filtration; ternary complex in fractions 5 to 7
T1 sequence: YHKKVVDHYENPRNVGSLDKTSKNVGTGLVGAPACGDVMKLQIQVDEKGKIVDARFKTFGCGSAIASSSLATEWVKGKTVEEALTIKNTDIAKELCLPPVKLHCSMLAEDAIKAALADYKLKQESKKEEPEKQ

The chains behind the UniProt entries cited, without tags or fusion partners. Where a name states a change or a piece, a line headed by the entry shows the natural chain unless it says otherwise. A line that says so, or that is headed by a name, gives the form on record, which may keep a tag or linker. Residues count along the entry.
UniProt Q16595: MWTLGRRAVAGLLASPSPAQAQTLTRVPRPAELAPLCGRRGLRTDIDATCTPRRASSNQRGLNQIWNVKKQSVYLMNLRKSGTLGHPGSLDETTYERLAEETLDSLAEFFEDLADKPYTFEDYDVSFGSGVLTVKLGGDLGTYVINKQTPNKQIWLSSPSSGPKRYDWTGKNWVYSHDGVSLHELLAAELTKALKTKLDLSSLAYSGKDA
recombinant human frataxin with a C-terminal flag epitope (hFXN-Flag): residues 42-210 of Q16595
mature form of human frataxin (aa 81–210) fused to an N-terminal GST (GST-hFXN 81–210): residues 81-210 of Q16595

mISCUD72A-HIS (mouse) = target: T2, mISCUD72A-HIS (mouse) (UniProt Q9D7P6); experiment: as above
T2 sequence: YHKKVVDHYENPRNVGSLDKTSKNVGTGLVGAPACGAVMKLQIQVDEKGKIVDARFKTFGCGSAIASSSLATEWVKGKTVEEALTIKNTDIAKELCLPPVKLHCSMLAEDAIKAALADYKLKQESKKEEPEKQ

mISCU-HIS (mouse) [2] = target: T1, mISCU-HIS (mouse); experiment: pull-down; mISCU-HIS co-expressed with mNFS1 and mISD11 in bacteria, purified by cobalt column; western blot
[3] = target: recombinant human frataxin with a C-terminal flag epitope (hFXN-Flag) (human) (UniProt Q16595); experiment: co-IP; FLAG M2 resin, mitochondria-enriched HeLa extract expressing Flag-tagged frataxin, western blot of the eluate; mitochondria treated or not with 100 µM hydrogen peroxide and 2 mM citrate
[4] = target: mature form of human frataxin (aa 81–210) fused to an N-terminal GST (GST-hFXN 81–210) (human) (UniProt Q16595); experiment: pull-down; 100 µg GST-fused frataxin with 5–10 mg HeLa mitochondria-enriched extract and glutathione sepharose beads, 3 hours, Tris-HCl 100 mM pH 7.5, 10% glycerol, 100 mM KCl; western blot; iron/ascorbate or EDTA added in some samples without effect; only the target purified

B1: mISD11 (murine ISD11) (protein, UniProt Q8K215 1-91)
chain: MAASSRAQVLDLYRAMMRESKHFSAYNYRMYAVRRIRDAFRENKNVKDPVEIQALVNKAKRDLEIIRRQVHIGQLYSTDKLIIENQEKPRT
For B1, the binding (mISCU-HIS (mouse) [1]) was “binds”, the binding (mISCUD72A-HIS (mouse)) was “binds” and the binding (mISCU-HIS (mouse) [2]) was “binds”.

B2: mitochondrial aconitase (mACO) (enzyme, UniProt Q99798 28-780)
chain: QRAKVAMSHFEPNEYIHYDLLEKNINIVRKRLNRPLTLSEKIVYGHLDDPASQEIERGKSYLRLRPDRVAMQDATAQMAMLQFISSGLSKVAVPSTIHCDHLIEAQVGGEKDLRRAKDINQEVYNFLATAGAKYGVGFWKPGSGIIHQIILENYAYPGVLLIGTDSHTPNGGGLGGICIGVGGADAVDVMAGIPWELKCPKVIGVKLTGSLSGWSSPKDVILKVAGILTVKGGTGAIVEYHGPGVDSISCTGMATICNMGAEIGATTSVFPYNHRMKKYLSKTGREDIANLADEFKDHLVPDPGCHYDQLIEINLSELKPHINGPFTPDLAHPVAEVGKVAEKEGWPLDIRVGLIGSCTNSSYEDMGRSAAVAKQALAHGLKCKSQFTITPGSEQIRATIERDGYAQILRDLGGIVLANACGPCIGQWDRKDIKKGEKNTIVTSYNRNFTGRNDANPETHAFVTSPEIVTALAIAGTLKFNPETDYLTGTDGKKFRLEAPDADELPKGEFDPGQDTYQHPPKDSSGQHVDVSPTSQRLQLLEPFDKWDGKDLEDLQILIKVKGKCTTDHISAAGPWLKFRGHLDNISNNLLIGAINIENGKANSVRNAVTQEFGPVPDTARYYKKHGIRWVVIGDENYGEGSSREHAALEPRHLGGRAIITKSFARIHETNLKKQGLLPLTFADPADYNKIHPVDKLTIQGLKDFTPGKPLKCIIKHPNGTQETILLNHTFNETQIEWFRAGSALNRMKELQQ
In the case of B2, the binding [3] is reported as “no binding” and the binding [4] is reported as “no binding”.

Reference: PMC3027643
